In PubChem BioAssay AID2517 (National Center for Advancing Translational Sciences (NCATS), 2010):
Out of some 350,000 compounds screened, about 1,200 (0.34%) were called active. This list was built around the results that the source calls inconclusive (neither active nor inactive); the mix of calls is not that of the screen. Calls come from the whole dose curve; as a rule, active = well fitted inhibition curve with a large enough effect; inconclusive = small, poorly fitted or top-dose-only effect; inactive = no such curve, though single readings can be large or run the other way. Potencies of inconclusive entries are doubtful fits and often do not repeat.

Amino acid sequences for entries named in this document (tags omitted).
UniProt P27695, whole entry, looked up: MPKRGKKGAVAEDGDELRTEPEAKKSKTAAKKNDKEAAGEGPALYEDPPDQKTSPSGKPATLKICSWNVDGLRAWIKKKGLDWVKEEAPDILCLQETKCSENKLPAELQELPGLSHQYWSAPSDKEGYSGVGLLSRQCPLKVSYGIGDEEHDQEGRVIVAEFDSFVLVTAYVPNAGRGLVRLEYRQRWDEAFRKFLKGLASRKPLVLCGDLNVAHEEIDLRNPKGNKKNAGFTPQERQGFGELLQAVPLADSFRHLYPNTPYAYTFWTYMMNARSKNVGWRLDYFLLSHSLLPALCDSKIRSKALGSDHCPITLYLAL

molecular target: DNA repair nuclease/redox regulator APEX1 (Homo sapiens) (UniProt P27695); assay: qHTS Assay for Inhibitors of the Human Apurinic/apyrimidinic Endonuclease 1 (APE1); details: recombinant APE1, TAMRA/BHQ-2 abasic DNA cleavage fluorescence; activity change, negative = inhibition: at 65.8 µM (top of the series); note: nearly all actives have a fitted effect of over 55% in size;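 for activity change, negative = inhibition: plate controls were vehicle for no effect and reference inhibitor for full effect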
Method in brief: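 APE1 at 0.75 nM final was preincubated with compound 15 min at room temperature, then 50 nM double-stranded THF abasic-site substrate (5'-TAMRA/3'-BHQ-2) was added. Fluorescence (ex 525/em 598 nm) was read kinetically; third-minus-first read gave activity.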
Potency is the fitted concentration of half-maximal effect.

Compound	Potency	activity change, negative = inhibition
CC(=O)C1C2c3ccccc3OC1(C)N=c1s/c(=C/c3cnn(C)c3)c(=O)n12 (configuration not stated)	inconclusive: 0.447 µM [inhibitor, full curve, poor fit]	
C=CCOC(C)=O	inactive	
C/C=C(\C)C(=O)OC1C(C)=C2C(C1OC(=O)CCCCC)C(C)(OC(C)=O)CC(OC(=O)CCC)C1(O)C2OC(=O)C1(C)O (configuration not stated)	inconclusive: 25.1 µM [inhibitor, partial curve]	
COc1cccc(-n2c(/C=C/c3ccc(O)c(O)c3)nc3ccccc3c2=O)c1	inconclusive: 17.8 µM [inhibitor, partial curve]	
CC(C)[C@H](CO)Nc1nc(Nc2cccc(Cl)c2)c2ncn(C(C)C)c2n1	inconclusive: 39.8 µM [inhibitor, partial curve]	
O=C1CC2OCC=C3CN4CCC56c7cc([N+](=O)[O-])ccc7N1C5C2C3CC46 (configuration not stated)	inactive	
COP(=O)(NC(=O)C(Cl)(Cl)Cl)OC	inconclusive: 35.5 µM [inhibitor, single point]	
NC(CC(=O)O)C1CCCCC1 (configuration not stated)	inactive	
CCC1CN2CCC1CC2C(O)c1ccnc2ccc(OC)cc12 (configuration not stated)	inactive	
COc1ccc(N2C(=O)NC(=O)/C(=C\c3ccc([N+](=O)[O-])s3)C2=O)cc1	inconclusive: 31.6 µM [inhibitor, single point]	
O=S(=O)(O)F	inactive	
O=[N+]([O-])c1cccc(C2N3CCCN23)c1 (configuration not stated)	inactive	
CCCCN(CC)CCNS(=O)(=O)c1ccc2c(c1)oc(=O)n2C	inconclusive: 39.8 µM [inhibitor, single point]	
CN1C[C@@H](C(=O)N[C@@]2(C)O[C@]3(O)C4CCCN4C(=O)[C@@H](Cc4ccccc4)N3C2=O)C=C2c3cccc4[nH]cc(c34)C[C@@H]21 (some centres not stated)	inconclusive: 35.5 µM [inhibitor, partial curve]	
COc1cc2c(cc1O)CC1c3c(cc(O)c(OC)c3-2)CCN1C (configuration not stated)	inconclusive: 44.7 µM [inhibitor, partial curve]	
COc1cccc(CNC(=O)CSc2ccc(-c3ccco3)nn2)c1	inconclusive: 31.6 µM [inhibitor, single point]	
CNCC[C@H](Oc1cccc2ccccc12)c1cccs1	inconclusive: 5.01 µM [inhibitor, single point]	
Nc1cccc2ccccc12	inconclusive: 3.98 µM [inhibitor, full curve, poor fit]	
O=c1[nH]c(=O)n(Cc2ccco2)c(O)c1C=NCc1ccco1	inactive	
NNc1n[nH]c(=S)n1N	inconclusive: 7.08 µM [inhibitor, partial curve, poor fit]	
O=C(Cn1c(=O)n(CC2CS2)c2ccccc21)N1CCCCC1 (configuration not stated)	inconclusive: 0.251 µM [inhibitor, full curve, poor fit]	

Quoted from the listing:
O=C1CC2OCC=C3CN4CCC56c7cc([N+](=O)[O-])ccc7N1C5C2C3CC46 (configuration not stated) – Potency: inactive
O=c1[nH]c(=O)n(Cc2ccco2)c(O)c1C=NCc1ccco1 – Potency: inactive
COc1cccc(CNC(=O)CSc2ccc(-c3ccco3)nn2)c1 – Potency: inconclusive: 31.6 µM [inhibitor, single point]

The list goes on.

Compound	Potency	activity change, negative = inhibition
C/C(O)=C(\C#N)C(=O)Nc1cc(Br)ccc1Br	inconclusive: 15.8 µM [inhibitor, single point]	
O=c1[nH]c(=S)n(Cc2ccco2)c(O)c1C=NCc1cccs1	inconclusive: 31.6 µM [inhibitor, partial curve]	
C[C@@H]1OC=C2[C@@H](O)[C@H]3O[C@H]3C(=O)[C@@]23[C@H]1[C@H]1C2=C([C@@H](O)[C@H]4O[C@@H]4C2=O)[C@@H]3O[C@@H]1C		inactive: -4.05% [at 12.4 µM]
CO[C@H]1C=C2CCN(C)[C@H]2C2c3cc4c(cc3C(=O)O[C@@H]21)OCO4 (some centres not stated)	inconclusive: 15 µM [inhibitor, single point]	
CC1C(=O)OC2CCN3CC=C(COC(=O)[C@](C)(O)[C@]1(C)O)C23 (some centres not stated)	inactive	
CCCCC/C=C\C/C=C\C/C=C\C/C=C\CCCC(=O)NCC(=O)O	inconclusive: 15.8 µM [inhibitor, partial curve]	
COc1ccc(CCNCc2sccc2C)cc1OC	inconclusive: 0.0045 µM [inhibitor, full curve, poor fit]	
COC(=O)C1=C(c2ccc(OC(F)(F)F)cc2)C[C@@H]2CC[C@H]1N2C(=O)NCCOc1ccccc1Cl	inconclusive: 23.8 µM [inhibitor, single point]	
CNCCC(Oc1ccc(C(F)(F)F)cc1)c1ccccc1 (configuration not stated)	inconclusive: 0.0056 µM [inhibitor, full curve]	
C[C@]12CC[C@@H]3c4ccc(O[C@@H]5O[C@H](C(=O)O)[C@@H](O)[C@H](O)[C@H]5O)cc4CC[C@H]3[C@@H]1C[C@@H](O)[C@@H]2O	inconclusive: 2.51 µM [inhibitor, partial curve]	
O=C(Nc1ccc2ccccc2c1)c1nn(C23CC4CC(CC(C4)C2)C3)cc1Br	active: 4.47 µM	
CCOc1cc(C=O)ccc1O	inactive	
Cc1cccc(N2C(=O)NC(=O)/C(=C/c3ccc(N4CCOCC4)cc3)C2=O)c1	inconclusive: 28.2 µM [inhibitor, single point]	
CCc1nnc(NC(=O)CSc2ccc(-c3ccco3)nn2)s1	inconclusive: 25.1 µM [inhibitor, single point]	
CC(=O)c1c(O)c(C)c(O)c(Cc2c(O)c3c(c(C(=O)/C=C/c4ccccc4)c2O)OC(C)(C)C=C3)c1O	inconclusive: 28.2 µM [inhibitor, partial curve, poor fit]	
O=c1[nH]c(=S)[nH]c(O)c1N=Nc1ccc(S(=O)(=O)N2CCOCC2)cc1	inconclusive: 39.8 µM [inhibitor, single point]	
Cc1cc2c(C(F)(F)F)cc(=O)oc2c2c1NCCC2	inactive	
CC(C(=O)Nc1ccc(Br)cc1C(=O)c1ccccc1)N1CCCCC1 (configuration not stated)	inconclusive: 79.4 µM [inhibitor, partial curve, poor fit]	
Cc1ccc(Cn2ccc(NC(=O)c3cc(-c4ccco4)on3)n2)cc1	inconclusive: 44.7 µM [inhibitor, single point]	
Cc1cc(/C=C2\C(=O)NC(=O)N(c3cccc(F)c3)C2=O)c(C)n1-c1cc(C(=O)O)cc(C(=O)O)c1	inconclusive: 20 µM [inhibitor, partial curve]	
CCN1C[C@]2(C)CC[C@H](OC)[C@@]34[C@@H]2[C@H](OC(C)=O)[C@]2(OCO[C@@]25C[C@@H](OC)[C@@H]2C[C@@]3(O)[C@H]5[C@@H]2OC)[C@H]14	inconclusive: 7.08 µM [inhibitor, single point]	
